# Source: article PMC12192291, “Ancestral [Fe-S] biogenesis system SMS has a unique mechanism of cluster assembly and sulfur utilization” (PLOS Biology, 2025)
# No constants are given. Whether binding was seen depends on the method and setting. Some results given as binding are weak or reduced against the parent protein; the word gives no strength.
# T1: SmsC C239A/C242A variant from Methanocaldococcus jannaschii, co-expressed with SmsB (Methanocaldococcus jannaschii)
# T1 sequence: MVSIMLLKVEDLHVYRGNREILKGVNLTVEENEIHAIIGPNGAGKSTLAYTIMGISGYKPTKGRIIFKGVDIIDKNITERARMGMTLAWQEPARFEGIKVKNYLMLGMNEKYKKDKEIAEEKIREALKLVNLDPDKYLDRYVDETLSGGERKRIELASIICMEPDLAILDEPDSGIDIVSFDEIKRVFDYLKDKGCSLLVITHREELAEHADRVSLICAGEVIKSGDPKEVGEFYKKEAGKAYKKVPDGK
# Key:
# [1] = target: T1, SmsC C239A/C242A variant from Methanocaldococcus jannaschii, co-expressed with SmsB (Methanocaldococcus jannaschii); test: co-purification; SmsC_(C239A/C242A) and SmsB co-expressed in E. coli from pVP367 (6His-Tev in front of smsC) and purified as a complex; the steps are not told for this variant
# [2] = target: SmsC from Methanocaldococcus jannaschii (Methanocaldococcus jannaschii); test: SEC; calibrated Hiload 600 Superdex 200, 50 mM Tris-HCl pH 7.8, 100 mM NaCl, 1 mM DTT; no nucleotide; for the complex SmsB2 and SmsC were mixed in molar amounts corresponding to SmsC2B2 and incubated overnight; both purified
# [3] = target: SmsC from Methanocaldococcus jannaschii (Methanocaldococcus jannaschii); test: crystal structure; SmsC2B2: orthorhombic crystals grown under oxic conditions and soaked with AMP-PNP (9H7Y); monoclinic crystals grown under anoxic conditions, sulfate bound (9HBL); both purified
# [4] = target: SmsC K45R variant (Walker A motif) from Methanocaldococcus jannaschii (Methanocaldococcus jannaschii); test: SEC; SmsC proteins incubated with 10 mM AMP-PCP and then purified by SEC; both purified
binder,measurement,setting,value
"SmsB from Methanocaldococcus jannaschii (natural protein, SmsB, Methanocaldococcus jannaschii, subunit of the SMS system; Mainly a homodimer in solution; two copies in SmsC2B2; also called SmsB2; source: E. coli MG1655(DE3) (FBE682), purified (HisTrap, TEV protease, Ni-NTA, SEC); not shown: His6, N-terminal, cleaved) MSIKEELMEIIEAIKYTSEKPEEIVHGKGPRIIVKESRIIDVQGDEGIILEGKEEDGKIKAKIIVKKGYKFKYPIHMCFGITEENISQIIDVEIILEEDSSISLMSHCSFPKGKGIKHIMNGIIKIGKNAKFSYNEFHYHGMDGDILVKPTVKVEIDEGGIYISNFTLTKGRIGTLDIEQEIIAKKDAIIDITTRTYAIKEDVVKVNEVVKLNGENAKCIIKSRGAAMDNSKISLKLKIEGNAPYSKGHIDCAEIVKGNAEVESIPIVVVRDDKARITHEAAIGSVDKKQLETLMAKGLDEDEATEIIVKGMIGDL",binding,[1],binds
"SmsC from Methanocaldococcus jannaschii (enzyme, SmsC, Methanocaldococcus jannaschii, ABC ATPase subunit of the SMS system; Monomer in solution without nucleotide; two copies in SmsC2B2; In the cryo-EM sample one of the two copies carries a [4Fe-4S] cluster; also called apo-SmsC; source: E. coli MG1655(DE3) (FBE682), purified (HisTrap, TEV protease, Ni-NTA, SEC); not shown: His6, N-terminal, cleaved) MVSIMLLKVEDLHVYRGNREILKGVNLTVEENEIHAIIGPNGAGKSTLAYTIMGISGYKPTKGRIIFKGVDIIDKNITERARMGMTLAWQEPARFEGIKVKNYLMLGMNEKYKKDKEIAEEKIREALKLVNLDPDKYLDRYVDETLSGGERKRIELASIICMEPDLAILDEPDSGIDIVSFDEIKRVFDYLKDKGCSLLVITHREELAEHADRVSLICAGEVIKSGDPKEVGEFYKKECGKCYKKVPDGK",binding,[2],no binding (condition: without AMP-PCP)
same,binding,[3],binds weakly
SmsC K45R variant (Walker A motif) from Methanocaldococcus jannaschii (enzyme) MVSIMLLKVEDLHVYRGNREILKGVNLTVEENEIHAIIGPNGAGRSTLAYTIMGISGYKPTKGRIIFKGVDIIDKNITERARMGMTLAWQEPARFEGIKVKNYLMLGMNEKYKKDKEIAEEKIREALKLVNLDPDKYLDRYVDETLSGGERKRIELASIICMEPDLAILDEPDSGIDIVSFDEIKRVFDYLKDKGCSLLVITHREELAEHADRVSLICAGEVIKSGDPKEVGEFYKKECGKCYKKVPDGK,binding,[4],no binding
